{"source": "PubChem BioAssay AID2685", "about": "(National Center for Advancing Translational Sciences (NCATS), 2010)", "note": "About 2,100 (0.66%) of roughly 320,000 compounds were called active. Inconclusive means that the source gave no clear call. Such entries were picked first, then a sample of the others. Calls come from the whole dose curve; as a rule, active = well fitted inhibition curve with a large enough effect in the signal ratio, with a control signal flat (not every such curve was filed as active); inconclusive = small, poorly fitted or top-dose-only effect, or effect the other way, or a change in a side signal; inactive = flat fitted curve, though single readings scatter; the % refers to the signal ratio. A potency beside an inconclusive call is a rough fit, not a confirmed value. % is set by controls: 0 for no effect and ±100 for the full control effect; potency is the fitted concentration of half-maximal effect."}
{"assay": "qHTS Assay for Lipid Storage Modulators in Drosophila S3 Cells", "settings": "BODIPY lipid droplet fluorescence, 18-24 h, cells fed with added oleic acid; lipid storage change, negative = inhibition: at 46.1 µM (top of the series) unless noted", "procedure,_shortened": "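Laser-scanning cytometry quantifies lipid droplet accumulation (500–530 nm total intensity; droplet/cell object ratio) in oleic acid-fed (400 uM added) Drosophila S3 cells treated with a concentration series. 20 uM Triacsin C defined 100% inhibition.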"}
{"molecule": "COc1ccccc1NC(=O)CN1CCN(C2c3ccccc3-c3ccccc32)CC1", "Potency": "inconclusive: 29.1 µM [falling, single point]"}
{"molecule": "Cc1cccc(N2CCN(Cc3ccoc3)CC2)c1C", "lipid storage change, negative = inhibition": "inconclusive: -30.8%"}
{"molecule": "CCOC(=O)[C@@H]1[C@H]2COc3ccc(Br)cc3[C@@H]2N2C(=O)N(c3ccc(C(F)(F)F)cc3)C(=O)[C@@]12C", "lipid storage change, negative = inhibition": "inconclusive: -45.5%"}
{"molecule": "CC(=O)c1ccc(N2CCN(C(=O)c3ccc(NC4=NC5CS(=O)(=O)CC5S4)cc3)CC2)cc1", "note": "(configuration not stated)", "lipid storage change, negative = inhibition": "inconclusive: 2.42%"}
{"molecule": "O=C(N[C@@H](Cc1ccccc1)C(=O)CCl)OCc1ccccc1", "Potency": "inconclusive: 29.1 µM [cytotoxic, single point]"}
{"molecule": "CCOC(=O)C1CCCN(C(=O)c2cn(CC)c3ccc(S(=O)(=O)N4CCCC4)cc3c2=O)C1", "note": "(configuration not stated)", "lipid storage change, negative = inhibition": "inconclusive: 3.09%"}
{"molecule": "O=C(NCc1ccc(F)cc1)C1CCN(S(=O)(=O)N2CCCCC2)CC1", "lipid storage change, negative = inhibition": "inconclusive: -24.6%"}
{"molecule": "Cc1ccc(S(=O)(=O)CCSc2nc(C)cc(C(F)(F)F)c2C#N)cc1", "Potency": "active: 16.4 µM"}
{"molecule": "O=C(Nc1cc(C(=O)N2CCN(c3ccccc3O)CC2)ccc1Cl)c1cccs1", "lipid storage change, negative = inhibition": "inactive"}
{"molecule": "Oc1ccc(-c2onc3ccc(Cl)cc23)cc1", "lipid storage change, negative = inhibition": "inconclusive: -6.15%"}
{"molecule": "Cc1cc(C)c(S(=O)(=O)NCc2cccnc2)c(C)c1", "lipid storage change, negative = inhibition": "inconclusive: -54.8%"}
{"molecule": "CC(=O)N(c1cccc(C(F)(F)F)c1)c1nc(/C=C/C(=O)O)cs1", "lipid storage change, negative = inhibition": "inconclusive: -11.5%"}
{"molecule": "CCOc1ccccc1NC(=O)Cn1c(=O)n(CCC(=O)NC2CCCC2)c(=O)c2ccccc21", "Potency": "inconclusive: 0.411 µM [activator, partial curve, poor fit]"}
{"molecule": "CC(C(=O)Nc1ccc2c(c1)OCCO2)N1CCN(C(=O)c2ccco2)CC1", "note": "(configuration not stated)", "lipid storage change, negative = inhibition": "inconclusive: 0.329%"}
{"molecule": "CCSc1nnc2c(n1)[nH]c1c(C)cccc12", "Potency": "active: 20.6 µM"}
{"molecule": "Cc1ccc(C2C(=O)N(C3CCCC3)CC(=O)N2C2CCCCC2)cc1", "note": "(configuration not stated)", "Potency": "inconclusive: 29.1 µM [activator, single point]"}
{"molecule": "Cc1cccc(OCC(=O)NCC(=O)N=Nc2c(O)[nH]c3ccc([N+](=O)[O-])cc23)c1", "Potency": "inconclusive: 29.1 µM [falling, single point]"}
{"molecule": "O=C(O)c1cccnc1SCc1cn2cc(Cl)ccc2n1", "lipid storage change, negative = inhibition": "inconclusive: -12.9%"}
{"molecule": "CC(C)CCNC(=O)CCc1nnc(COc2ccccc2)o1", "lipid storage change, negative = inhibition": "inactive"}
{"molecule": "CCOc1cc(NC(=S)Nc2cccc(OC)c2)c(OCC)cc1NC(=O)c1ccc(C)cc1", "lipid storage change, negative = inhibition": "inconclusive: 13.3%"}
{"molecule": "CC(C)CN1C(=O)/C(=C(/C#N)C(=O)NC2CCCCC2)c2ccccc21", "lipid storage change, negative = inhibition": "inconclusive: 3.28%"}
{"molecule": "O=C(c1ccco1)N1CCN(C(=O)c2cc3cc([N+](=O)[O-])ccc3oc2=O)CC1", "lipid storage change, negative = inhibition": "inconclusive: 66.3%"}
{"molecule": "Cc1ccc(S(=O)(=O)NC2(C(F)(F)F)C(=O)Nc3c2c(=O)[nH]c(=O)n3-c2ccccc2)cc1", "note": "(configuration not stated)", "lipid storage change, negative = inhibition": "inconclusive: 13.6%"}
{"molecule": "NS(=O)(=O)c1ccc(N/N=C/C=C/c2ccccc2[N+](=O)[O-])cc1", "lipid storage change, negative = inhibition": "inconclusive: 259%"}
{"molecule": "COc1ccc(/C=N/NC(=O)c2ccc(N(C)S(=O)(=O)c3ccccc3)cc2)cc1OC", "lipid storage change, negative = inhibition": "inconclusive: 3.55%"}
{"molecule": "CN(C)c1ccc(/C=C2\\NC(=S)N(Cc3ccccc3)C2=O)cc1", "Potency": "inconclusive: 20.6 µM [falling, single point]"}
{"molecule": "CCOC(=O)c1ccc(NC(=O)N2C3CCCC2CC(NC(C)=O)C3)cc1", "note": "(configuration not stated)", "lipid storage change, negative = inhibition": "inconclusive: -0.596%"}
{"molecule": "NC1=NC(=O)CC(C(=O)NCCc2ccccc2)S1", "note": "(configuration not stated)", "lipid storage change, negative = inhibition": "inconclusive: -81.7%"}
{"molecule": "O=C1/C(=C/c2cccc(Br)c2)SC(=S)N1/N=C/c1cc([N+](=O)[O-])ccc1O", "lipid storage change, negative = inhibition": "inconclusive: -2.41%"}
{"molecule": "Cc1ccc(-c2nn(C)c(=O)c3ccccc23)cc1CNC(=O)c1ccco1", "Potency": "inconclusive: 29.1 µM [activator, single point]"}
{"molecule": "Cc1cccc(NC(=O)c2ccc(S(=O)(=O)NCc3ccco3)cc2)n1", "lipid storage change, negative = inhibition": "inconclusive: -55.7%"}
{"molecule": "CCOC(=O)C1CCN(C(=O)COc2ccc(S(=O)(=O)N3CCOCC3)cc2)CC1", "lipid storage change, negative = inhibition": "inconclusive: -25.4%"}
{"molecule": "C=C(C)COc1ccc(-c2nc(N)ncc2-c2ccc(OC)c(OC)c2)c(O)c1", "lipid storage change, negative = inhibition": "inconclusive: 2.44%"}
{"molecule": "NC(=O)COC(=O)c1ccc(Oc2ccccc2)cc1", "lipid storage change, negative = inhibition": "inconclusive: 13.7%"}
{"molecule": "COC(=O)c1ccccc1NC(=O)NCc1cccnc1", "lipid storage change, negative = inhibition": "inconclusive: 58%"}
{"molecule": "CC(=O)NC(NC(=S)N1CCCCCC1)C(Cl)(Cl)Cl", "note": "(configuration not stated)", "lipid storage change, negative = inhibition": "inconclusive: -46.4% [cytotoxic] [at 0.369 µM]"}
{"molecule": "O=C1C2CCCCC2C(=O)N1c1ccc(NC2CCCCC2)c([N+](=O)[O-])c1", "note": "(configuration not stated)", "Potency": "inconclusive: 29.1 µM [falling, single point]"}
{"molecule": "CCOC(=O)[C@H]1[C@H]2COc3ccccc3[C@@H]2N2C(=O)c3cc(Br)ccc3NC(=O)[C@@]12C", "lipid storage change, negative = inhibition": "inconclusive: 15.7%"}
{"molecule": "O=C(O)c1cccc(N2CCCC2=O)c1", "lipid storage change, negative = inhibition": "inconclusive: 209%"}
{"molecule": "C=CCOC(=O)C1=C[C@@H](c2ccc(Br)cc2)C[C@@H](OCc2ccc(CO)cc2)O1", "lipid storage change, negative = inhibition": "inconclusive: 19.3%"}
{"molecule": "Cn1c(=O)cc(OCCCC(=O)NCCCN2CCN(Cc3ccccc3)CC2)c2ccccc21", "lipid storage change, negative = inhibition": "inconclusive: -27.4%"}
{"molecule": "N#C/C(=C/c1ccc(-c2ccccc2[N+](=O)[O-])o1)C(=O)NCCN1CCCCC1", "Potency": "inconclusive: 5.17 µM [activator, full curve, poor fit]"}
{"molecule": "CCOC(=O)c1cc2occc2n1CC(=O)NC1CCC(C)CC1", "note": "(configuration not stated)", "lipid storage change, negative = inhibition": "inconclusive: -27.7%"}
{"molecule": "COc1cc(/C=C2\\SC(=S)N(CCC(=O)Nc3ccc(O)cc3)C2=O)cc(OC)c1OC", "lipid storage change, negative = inhibition": "inconclusive: -137%"}
{"molecule": "COc1cc(N/N=C/c2ccccc2O)ncn1", "lipid storage change, negative = inhibition": "inconclusive: -24.2%"}
{"molecule": "COc1cccc(CNC(=S)Nc2cc(OC)ccc2OC)c1", "lipid storage change, negative = inhibition": "inconclusive: -54.7% [at 0.00295 µM]"}
{"molecule": "O=C(NCCOc1nc(N2CCCCC2)nc(N2CCOCC2)n1)Nc1ccccc1", "Potency": "active: 0.731 µM"}
{"molecule": "c1ccc(-n2nnc3ccccc32)cc1", "lipid storage change, negative = inhibition": "inconclusive: 30.9%"}
{"molecule": "COc1ccc(/C=N/OC/C(O)=C(\\C#N)c2nc3ccccc3[nH]2)cc1OC", "Potency": "inconclusive: 0.82 µM [activator, full curve, poor fit]"}
{"molecule": "COc1ccc(CCNC(=O)c2ccc(CN3CCC(Cc4ccccc4)CC3)cc2)cc1OC", "lipid storage change, negative = inhibition": "inconclusive: 10.3%"}
{"molecule": "O=C(Cc1ccccc1)NCCCN1CCN(CCCNC(=O)Cc2ccccc2)CC1", "lipid storage change, negative = inhibition": "inconclusive: -75.4%"}
{"molecule": "O=C1N/C(=N\\N=C\\c2ccco2)SC1Cc1ccc(F)cc1", "note": "(configuration not stated)", "Potency": "inconclusive: 0.82 µM [cytotoxic, full curve, poor fit]"}
{"molecule": "Cc1ccsc1-c1nc(CN2CCCC2c2ccc(F)cc2)c(C)o1", "note": "(configuration not stated)", "lipid storage change, negative = inhibition": "inactive"}
{"molecule": "Cc1cccnc1NC(=O)c1ccc(C(=O)c2ccccc2)cc1", "Potency": "inconclusive: 0.731 µM [activator, partial curve]"}
{"molecule": "O=C(CNCc1ccccn1)N1CCc2ccccc2C1", "lipid storage change, negative = inhibition": "inconclusive: -5.2%"}
{"molecule": "CCc1nn(CC(=O)NCCC2=CCCCC2)c(=O)c2cc3cc(F)ccc3n12", "lipid storage change, negative = inhibition": "inconclusive: -28%"}
{"molecule": "CC12CCC(C(=O)NCCCN3CCOCC3)(C(Br)C1=O)C2(C)C", "note": "(configuration not stated)", "lipid storage change, negative = inhibition": "inconclusive: -26.7%"}
{"molecule": "COc1ccc(N2CCN(CCCNC(=O)CN3CCN(Cc4ccccc4C)C3=O)CC2)cc1", "lipid storage change, negative = inhibition": "inconclusive: 44.9%"}
{"molecule": "O=C(O)/C=C/C(=O)OC1CC2CCC1C2", "note": "(configuration not stated)", "lipid storage change, negative = inhibition": "inconclusive: -29.1%"}
{"molecule": "COc1cc(NC(=O)CN2CCN(c3ccccc3O)CC2)c(C)cc1[N+](=O)[O-]", "lipid storage change, negative = inhibition": "inconclusive: 0.0484%"}
{"molecule": "COc1ccc(NC(=O)CN(C)C(=O)CSc2ccc(Br)cc2)cc1", "Potency": "inconclusive: 0.13 µM [activator, full curve, poor fit]"}
{"molecule": "COc1cccc(-c2cn3nc4c(nc3n2)CCCC4)c1", "lipid storage change, negative = inhibition": "inconclusive: 46.6%"}
{"molecule": "Cn1cnnc1SCC(C)(C)NS(=O)(=O)c1ccc(Cl)cc1", "lipid storage change, negative = inhibition": "inconclusive: -33.3%"}
{"molecule": "COc1ccc(-c2nnc(SCC(=O)c3[nH]c(C)c(C(C)=O)c3C)o2)cc1", "lipid storage change, negative = inhibition": "inconclusive: 37.1%"}
{"molecule": "COc1cc(Cn2nnc3ccccc32)cc(Br)c1O", "Potency": "inconclusive: 6.51 µM [activator, single point]"}
{"molecule": "CS(=O)(=O)c1ccc2nc(NC(=O)CCNC(=O)c3ccccc3Cl)sc2c1", "lipid storage change, negative = inhibition": "inconclusive: -9.04%"}
{"molecule": "CN1CCN(C(=O)c2ccccc2NC(=O)CCN2C(=O)c3ccccc3C2=O)CC1", "lipid storage change, negative = inhibition": "inconclusive: 21.8%"}
{"molecule": "CCOc1ccccc1NC(=O)CCS(=O)(=O)c1cccs1", "lipid storage change, negative = inhibition": "inconclusive: -11.4%"}
{"molecule": "O=C(COC(=O)c1ccccc1Br)Nc1ccccc1F", "lipid storage change, negative = inhibition": "inconclusive: 16.6%"}
{"molecule": "CC(c1ccccc1)N(C)C(=O)CN1CCN(S(=O)(=O)c2ccc3c(c2)OCCCO3)CC1", "note": "(configuration not stated)", "lipid storage change, negative = inhibition": "inconclusive: 22%"}
{"molecule": "COc1cccc(N2CCN(c3ncnc4c3cnn4-c3ccc(C)cc3C)CC2)c1", "lipid storage change, negative = inhibition": "inconclusive: 15.6% [at 9.22 µM]"}
{"molecule": "CCN1C(=NCc2cccc(Cl)c2)N[C@@H](c2cccc(F)c2)C(C(=O)OC)=C1C", "Potency": "inconclusive: 29.1 µM [falling, single point]"}
{"molecule": "O=C(NC1CCOCC1)C1CCC(=O)N(Cc2ccc(Cl)cc2)C1", "note": "(configuration not stated)", "lipid storage change, negative = inhibition": "inconclusive: -15.5%"}
{"molecule": "Cc1c(-c2ccccc2)oc2c(C(=O)N3CCN(c4ccc([N+](=O)[O-])cc4)CC3)cccc2c1=O", "lipid storage change, negative = inhibition": "inconclusive: -23.2%"}
{"molecule": "CN(C)S(=O)(=O)c1cccc(NC(=O)COC(=O)/C=C/c2ccc([N+](=O)[O-])cc2)c1", "lipid storage change, negative = inhibition": "inconclusive: -29.7%"}
{"molecule": "CSc1nsc(SCC(=O)Nc2ccccc2)n1", "lipid storage change, negative = inhibition": "inconclusive: 22.9%"}
{"molecule": "NS(=O)(=O)c1ccc(CNC(=O)c2ccc(Cl)c([N+](=O)[O-])c2)cc1", "lipid storage change, negative = inhibition": "inconclusive: 5.45%"}
